We go through eleven molecules from the supplement of paper PMC12823440, “Inhibitors supercharge kinase turnover through native proteolytic circuits” (Nature, 2025).

Amino acid sequences for entries named in this document (tags omitted). A change or cut given only in a name is not applied to a line headed by its entry.
UniProt O96013: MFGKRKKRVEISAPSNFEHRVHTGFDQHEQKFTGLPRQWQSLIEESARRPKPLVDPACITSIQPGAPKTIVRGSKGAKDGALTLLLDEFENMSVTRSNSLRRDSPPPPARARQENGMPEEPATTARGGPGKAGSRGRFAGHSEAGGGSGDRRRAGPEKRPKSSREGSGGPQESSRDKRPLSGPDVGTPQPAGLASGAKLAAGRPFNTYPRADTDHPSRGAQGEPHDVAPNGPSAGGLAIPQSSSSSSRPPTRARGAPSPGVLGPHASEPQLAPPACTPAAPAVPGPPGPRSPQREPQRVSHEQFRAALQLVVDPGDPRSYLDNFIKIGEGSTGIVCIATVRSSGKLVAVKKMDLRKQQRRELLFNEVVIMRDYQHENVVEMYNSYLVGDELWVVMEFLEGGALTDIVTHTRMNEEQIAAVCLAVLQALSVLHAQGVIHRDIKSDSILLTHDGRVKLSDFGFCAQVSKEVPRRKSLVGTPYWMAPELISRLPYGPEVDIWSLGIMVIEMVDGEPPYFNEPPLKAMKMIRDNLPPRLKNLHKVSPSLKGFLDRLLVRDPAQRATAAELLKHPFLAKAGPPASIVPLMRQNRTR
UniProt Q96KB5: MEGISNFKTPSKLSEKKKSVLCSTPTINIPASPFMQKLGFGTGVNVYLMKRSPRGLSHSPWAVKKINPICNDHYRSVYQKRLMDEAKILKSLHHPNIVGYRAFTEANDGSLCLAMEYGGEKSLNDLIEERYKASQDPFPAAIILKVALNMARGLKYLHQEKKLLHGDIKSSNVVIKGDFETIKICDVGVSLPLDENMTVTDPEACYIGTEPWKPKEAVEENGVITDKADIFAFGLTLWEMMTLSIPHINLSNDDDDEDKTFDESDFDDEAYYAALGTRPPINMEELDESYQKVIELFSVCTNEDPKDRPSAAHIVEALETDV
UniProt P09619, whole entry: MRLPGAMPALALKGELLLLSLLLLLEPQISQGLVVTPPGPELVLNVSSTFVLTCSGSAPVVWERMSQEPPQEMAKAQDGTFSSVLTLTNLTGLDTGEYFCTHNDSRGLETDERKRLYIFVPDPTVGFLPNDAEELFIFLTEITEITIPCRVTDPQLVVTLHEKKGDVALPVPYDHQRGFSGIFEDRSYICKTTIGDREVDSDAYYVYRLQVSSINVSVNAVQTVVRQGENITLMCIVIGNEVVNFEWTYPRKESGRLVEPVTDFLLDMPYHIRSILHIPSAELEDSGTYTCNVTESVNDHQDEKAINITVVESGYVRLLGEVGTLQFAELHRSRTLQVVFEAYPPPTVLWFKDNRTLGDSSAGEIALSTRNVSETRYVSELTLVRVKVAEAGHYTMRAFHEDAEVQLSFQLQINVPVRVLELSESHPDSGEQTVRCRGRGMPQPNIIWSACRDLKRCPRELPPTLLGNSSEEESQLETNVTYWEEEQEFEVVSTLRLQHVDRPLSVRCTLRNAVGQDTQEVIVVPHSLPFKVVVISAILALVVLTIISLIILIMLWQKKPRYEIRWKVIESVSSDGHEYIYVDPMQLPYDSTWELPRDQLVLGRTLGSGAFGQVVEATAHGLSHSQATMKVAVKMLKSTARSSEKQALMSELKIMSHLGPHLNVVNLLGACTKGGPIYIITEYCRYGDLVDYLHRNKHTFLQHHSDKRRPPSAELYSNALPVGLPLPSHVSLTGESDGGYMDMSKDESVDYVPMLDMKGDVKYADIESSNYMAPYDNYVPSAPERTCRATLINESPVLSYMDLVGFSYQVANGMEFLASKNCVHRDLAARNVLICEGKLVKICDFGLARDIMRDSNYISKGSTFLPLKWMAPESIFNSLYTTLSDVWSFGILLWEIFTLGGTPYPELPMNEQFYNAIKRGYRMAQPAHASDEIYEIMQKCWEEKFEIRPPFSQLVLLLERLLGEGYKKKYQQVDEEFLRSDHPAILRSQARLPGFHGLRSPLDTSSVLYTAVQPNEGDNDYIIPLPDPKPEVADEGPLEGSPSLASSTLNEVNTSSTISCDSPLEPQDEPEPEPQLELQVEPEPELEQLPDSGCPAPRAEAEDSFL
UniProt Q15118, whole entry, looked up: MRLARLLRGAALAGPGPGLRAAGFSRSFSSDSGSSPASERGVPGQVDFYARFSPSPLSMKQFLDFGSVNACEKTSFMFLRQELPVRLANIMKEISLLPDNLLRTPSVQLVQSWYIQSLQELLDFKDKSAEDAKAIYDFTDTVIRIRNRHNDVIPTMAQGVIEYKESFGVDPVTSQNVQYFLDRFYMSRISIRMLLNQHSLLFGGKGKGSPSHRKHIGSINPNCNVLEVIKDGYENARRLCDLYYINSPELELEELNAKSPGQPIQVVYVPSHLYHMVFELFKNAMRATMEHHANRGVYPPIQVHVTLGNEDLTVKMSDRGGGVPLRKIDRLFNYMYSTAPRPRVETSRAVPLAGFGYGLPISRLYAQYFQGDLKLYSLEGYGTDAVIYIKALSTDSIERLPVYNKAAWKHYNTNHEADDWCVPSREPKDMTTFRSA
UniProt O15530: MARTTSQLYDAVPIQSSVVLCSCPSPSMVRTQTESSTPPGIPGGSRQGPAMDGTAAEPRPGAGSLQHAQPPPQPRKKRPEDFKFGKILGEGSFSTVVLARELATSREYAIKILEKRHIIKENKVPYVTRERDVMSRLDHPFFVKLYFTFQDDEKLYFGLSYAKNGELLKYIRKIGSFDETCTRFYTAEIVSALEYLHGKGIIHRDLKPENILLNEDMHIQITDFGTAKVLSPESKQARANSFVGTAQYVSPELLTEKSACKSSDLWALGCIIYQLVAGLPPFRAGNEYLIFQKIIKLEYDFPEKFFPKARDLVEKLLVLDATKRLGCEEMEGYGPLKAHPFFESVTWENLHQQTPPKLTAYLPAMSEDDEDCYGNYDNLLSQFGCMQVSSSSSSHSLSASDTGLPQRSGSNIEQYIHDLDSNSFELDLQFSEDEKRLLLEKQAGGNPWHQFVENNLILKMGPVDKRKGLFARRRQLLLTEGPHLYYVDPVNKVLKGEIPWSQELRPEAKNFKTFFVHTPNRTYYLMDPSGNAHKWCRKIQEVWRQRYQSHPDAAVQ
UniProt P42356, whole entry, looked up: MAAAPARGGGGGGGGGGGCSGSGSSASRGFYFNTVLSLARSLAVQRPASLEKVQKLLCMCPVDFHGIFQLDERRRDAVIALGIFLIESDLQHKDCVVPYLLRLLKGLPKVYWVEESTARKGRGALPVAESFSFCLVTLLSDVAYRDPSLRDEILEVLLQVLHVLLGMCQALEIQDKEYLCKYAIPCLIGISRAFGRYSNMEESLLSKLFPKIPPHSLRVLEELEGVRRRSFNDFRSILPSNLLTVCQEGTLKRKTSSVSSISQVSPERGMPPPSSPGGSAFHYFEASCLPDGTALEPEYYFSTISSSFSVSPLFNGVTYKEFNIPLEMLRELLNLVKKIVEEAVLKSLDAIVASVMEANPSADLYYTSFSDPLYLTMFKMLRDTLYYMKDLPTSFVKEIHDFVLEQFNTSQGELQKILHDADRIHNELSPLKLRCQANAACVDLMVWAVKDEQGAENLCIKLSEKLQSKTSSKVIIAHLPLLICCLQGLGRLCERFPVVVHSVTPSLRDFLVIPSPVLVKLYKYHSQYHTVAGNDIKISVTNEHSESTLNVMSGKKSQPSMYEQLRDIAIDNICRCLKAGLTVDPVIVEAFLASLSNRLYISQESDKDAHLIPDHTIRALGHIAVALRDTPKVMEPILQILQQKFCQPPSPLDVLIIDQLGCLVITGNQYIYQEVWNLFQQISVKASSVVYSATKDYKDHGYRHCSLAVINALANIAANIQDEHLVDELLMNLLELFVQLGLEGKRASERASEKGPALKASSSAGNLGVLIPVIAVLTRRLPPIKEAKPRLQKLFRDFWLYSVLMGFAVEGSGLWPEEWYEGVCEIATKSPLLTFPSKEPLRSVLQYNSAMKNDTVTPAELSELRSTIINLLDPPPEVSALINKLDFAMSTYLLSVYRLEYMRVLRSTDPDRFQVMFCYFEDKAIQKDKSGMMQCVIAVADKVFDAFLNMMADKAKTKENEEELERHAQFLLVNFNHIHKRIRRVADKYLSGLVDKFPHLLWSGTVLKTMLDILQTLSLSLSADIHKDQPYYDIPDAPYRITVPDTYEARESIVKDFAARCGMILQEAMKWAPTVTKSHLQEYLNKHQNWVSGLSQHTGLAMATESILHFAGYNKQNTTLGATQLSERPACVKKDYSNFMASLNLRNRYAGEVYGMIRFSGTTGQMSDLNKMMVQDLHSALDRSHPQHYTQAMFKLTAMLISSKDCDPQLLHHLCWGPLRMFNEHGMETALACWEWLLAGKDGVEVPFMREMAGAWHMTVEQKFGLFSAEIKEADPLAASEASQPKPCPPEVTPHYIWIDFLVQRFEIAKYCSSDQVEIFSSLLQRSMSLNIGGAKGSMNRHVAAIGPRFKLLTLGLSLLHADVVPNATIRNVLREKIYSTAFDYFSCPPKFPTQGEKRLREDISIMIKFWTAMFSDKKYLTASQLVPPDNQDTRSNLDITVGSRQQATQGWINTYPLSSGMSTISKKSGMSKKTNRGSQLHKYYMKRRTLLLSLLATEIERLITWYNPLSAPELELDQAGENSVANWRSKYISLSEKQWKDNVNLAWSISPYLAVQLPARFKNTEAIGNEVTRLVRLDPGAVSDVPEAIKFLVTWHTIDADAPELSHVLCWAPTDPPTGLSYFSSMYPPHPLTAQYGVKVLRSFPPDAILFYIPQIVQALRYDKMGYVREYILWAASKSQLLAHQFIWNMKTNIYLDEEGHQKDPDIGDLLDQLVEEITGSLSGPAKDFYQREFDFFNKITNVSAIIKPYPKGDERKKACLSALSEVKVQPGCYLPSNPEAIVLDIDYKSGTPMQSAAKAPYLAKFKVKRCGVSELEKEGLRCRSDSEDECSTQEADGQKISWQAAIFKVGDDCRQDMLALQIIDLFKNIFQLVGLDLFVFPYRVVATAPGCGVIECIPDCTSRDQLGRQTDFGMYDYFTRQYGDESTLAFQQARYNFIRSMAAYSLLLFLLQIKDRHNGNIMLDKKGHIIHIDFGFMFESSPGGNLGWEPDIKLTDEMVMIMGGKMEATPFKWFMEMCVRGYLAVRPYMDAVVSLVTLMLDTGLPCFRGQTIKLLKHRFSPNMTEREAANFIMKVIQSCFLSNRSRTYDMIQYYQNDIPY
UniProt Q9UBF8: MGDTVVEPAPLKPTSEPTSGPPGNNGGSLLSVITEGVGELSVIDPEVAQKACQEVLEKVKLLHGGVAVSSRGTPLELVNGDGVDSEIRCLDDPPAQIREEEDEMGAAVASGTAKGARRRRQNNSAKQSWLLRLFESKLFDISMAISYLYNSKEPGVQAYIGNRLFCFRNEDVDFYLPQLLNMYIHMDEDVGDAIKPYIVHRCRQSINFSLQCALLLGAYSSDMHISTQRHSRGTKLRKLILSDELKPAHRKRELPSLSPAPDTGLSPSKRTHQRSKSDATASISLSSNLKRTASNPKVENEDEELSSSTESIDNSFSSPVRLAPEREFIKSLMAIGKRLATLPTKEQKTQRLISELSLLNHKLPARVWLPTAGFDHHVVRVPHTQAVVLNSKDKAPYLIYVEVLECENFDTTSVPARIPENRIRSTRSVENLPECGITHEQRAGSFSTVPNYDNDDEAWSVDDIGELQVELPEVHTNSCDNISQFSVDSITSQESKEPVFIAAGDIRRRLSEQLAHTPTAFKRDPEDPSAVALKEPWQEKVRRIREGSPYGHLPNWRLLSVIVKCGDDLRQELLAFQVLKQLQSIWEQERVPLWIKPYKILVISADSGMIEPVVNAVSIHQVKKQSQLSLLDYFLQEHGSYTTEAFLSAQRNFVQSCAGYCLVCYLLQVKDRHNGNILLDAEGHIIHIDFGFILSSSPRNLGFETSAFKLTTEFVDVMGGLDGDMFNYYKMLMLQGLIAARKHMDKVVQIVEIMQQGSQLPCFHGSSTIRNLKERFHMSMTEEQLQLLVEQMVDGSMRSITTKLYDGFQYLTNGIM
UniProt Q13131: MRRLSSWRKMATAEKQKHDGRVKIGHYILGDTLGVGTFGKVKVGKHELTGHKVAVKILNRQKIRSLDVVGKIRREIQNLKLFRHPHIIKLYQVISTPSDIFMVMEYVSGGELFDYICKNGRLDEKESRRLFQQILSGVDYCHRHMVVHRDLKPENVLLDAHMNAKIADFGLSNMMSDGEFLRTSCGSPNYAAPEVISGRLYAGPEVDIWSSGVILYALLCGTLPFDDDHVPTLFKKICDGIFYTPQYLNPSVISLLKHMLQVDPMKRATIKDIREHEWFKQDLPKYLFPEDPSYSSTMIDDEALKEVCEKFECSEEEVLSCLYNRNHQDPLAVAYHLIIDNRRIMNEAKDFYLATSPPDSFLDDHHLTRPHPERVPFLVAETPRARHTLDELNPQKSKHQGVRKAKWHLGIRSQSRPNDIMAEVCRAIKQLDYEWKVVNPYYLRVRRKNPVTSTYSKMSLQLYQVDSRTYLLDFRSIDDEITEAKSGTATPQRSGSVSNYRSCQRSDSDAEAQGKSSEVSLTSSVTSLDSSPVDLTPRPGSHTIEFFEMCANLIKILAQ

Counter-ions that a name gives are not always drawn. The list shows a part of the results. The calls rarely recur for the same compound in another form.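 Kinases were expressed as nanoluciferase fusions in K562 cells and luminescence was read every 4 h between 2 and 18 h as percent of control, DMSO set to 100% and a positive control to 0%. A time point counts as decreased when the signal drops significantly (2 sigma). The hit call is the authors' own, does not follow from the count of time points alone, and its rule is not shown.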

Among the targets are NTRK3 (UniProt Q16288); PAK4 (UniProt O96013); PBK (UniProt Q96KB5); PDGFRB (UniProt P09619); PDK1 (UniProt Q15118); PDPK1 (UniProt O15530); PIK4CA (UniProt P42356); PIK4CB (UniProt Q9UBF8); PLK1 (UniProt P53350); PRKAA1 (UniProt Q13131).
Assay in all cases: number of time points (of 5) at which kinase-Nluc abundance scored as decreased, DMSO-normalised (count); higher = more persistent destabilization
Conditions in all cases: K562; 2-18 h

Take `COCCNc1cc(NC(=O)N2CCCc3cc(CN4CCN(C)CC4=O)c(C=O)nc32)ncc1C#N` [Roblitinib] (10 µM): the “number of time points” value with NTRK3, with PAK4, in the assay with PBK, in the assay with PDGFRB, with PDK1 and with PDPK1 was 0 each time. In addition, the “number of time points” value with PIK4CA, in the assay with PIK4CB, in the assay with PLK1 and with PRKAA1 was 0 each time.
Take `O=C(NC1CCOCC1)c1ccc(-c2cc(-c3c[nH]nc3-c3ccccn3)ccn2)cc1` (10 µM): the “number of time points” value with NTRK3, with PAK4, in the assay with PBK, with PDGFRB, with PDK1 and with PDPK1 was 0 throughout. Also, the “number of time points” value with PIK4CA, in the assay with PIK4CB, with PLK1 and with PRKAA1 was 0 each time.
On to `C[C@@H]1CN(c2cc(-c3n[nH]c4ccc(OC5(C)CC5)cc34)ncn2)C[C@H](C)O1` (10 µM), for which the “number of time points” value with NTRK3, with PAK4, in the assay with PBK, in the assay with PDGFRB, with PDK1 and with PDPK1 was 0 in each case. Further, the “number of time points” value in the assay with PIK4CA, with PIK4CB, in the assay with PLK1 and in the assay with PRKAA1 was 0 in each case.
For `COc1ccc(-c2c(C)nn3c(NCCN4CCOCC4)cc(C)nc23)cc1OC` (10 µM), the “number of time points” value in the assay with NTRK3, with PAK4, with PBK, with PDGFRB, in the assay with PDK1 and with PDPK1 was 0 throughout. In addition, the “number of time points” value with PIK4CA, in the assay with PIK4CB, with PLK1 and with PRKAA1 was 0 throughout.
Turning to `c1ccc(-c2nc(=NCCN3CCOCC3)sn2-c2ccccc2)cc1` [VP3.15 (dihydrobromide)] (10 µM), the “number of time points” value with NTRK3, in the assay with PAK4, in the assay with PBK, with PDGFRB, with PDK1 and with PDPK1 was 0 in each case. The “number of time points” value with PIK4CA, with PIK4CB, with PLK1 and in the assay with PRKAA1 was 0 each time.
Consider `N#Cc1c2nc3ccccc3nc2n2ccc(NC(=O)c3cccs3)cc12` (10 µM), for which the “number of time points” value with NTRK3, with PAK4, with PBK, with PDGFRB, in the assay with PDK1 and with PDPK1 was 0 in each case. The “number of time points” value with PIK4CA, in the assay with PIK4CB, in the assay with PLK1 and with PRKAA1 was 0 each time.
For `COc1ccc(/C=C/C(=O)C2(C(=O)/C=C/c3ccc(OC)c(OC)c3)CCCCC2)cc1OC` (2.5 µM), the “number of time points” value with NTRK3, with PAK4, with PBK, in the assay with PDGFRB, with PDK1 and with PDPK1 was 0 throughout. Further, the “number of time points” value with PIK4CA, in the assay with PIK4CB, with PLK1 and with PRKAA1 was 0 in each case.
As to `O=c1[nH]c(C2CCCN2)nc2c1oc1ccc(Cl)cc12` (stereo not given) [XL413 (hydrochloride)] (10 µM), the “number of time points” value with NTRK3, in the assay with PAK4, with PBK, with PDGFRB, with PDK1 and in the assay with PDPK1 was 0 throughout. For the same molecule, the “number of time points” value in the assay with PIK4CA, with PIK4CB, in the assay with PLK1 and with PRKAA1 was 0 in each case.
With `COc1ncccc1-c1cnn2ccc(N3CCN(C(=O)OC(C)C)CC3)nc12` (10 µM), the “number of time points” value with NTRK3, in the assay with PAK4, with PBK, with PDGFRB, with PDK1 and in the assay with PDPK1 was 0 throughout. Moreover, the “number of time points” value with PIK4CA, in the assay with PIK4CB, with PLK1 and with PRKAA1 was 0 throughout.
Consider `COc1cc(-c2cn[nH]c2)ccc1C(=O)Nc1ccc2c(c1)CCNCC2` (10 µM), for which the “number of time points” value in the assay with NTRK3, with PAK4, with PBK, with PDGFRB, with PDK1 and with PDPK1 was 0 in each case. Besides, the “number of time points” value with PIK4CA, with PIK4CB, with PLK1 and in the assay with PRKAA1 was 0 each time.
For `Nc1cccc(-c2cc3c(Oc4cccc(O)c4)ncnc3[nH]2)c1` (10 µM), the “number of time points” value stood at 0 in the assay with NTRK3; 0 with PAK4; 0 in the assay with PBK; 1 in the assay with PDGFRB; 0 with PDK1; 3 in the assay with PDPK1. The “number of time points” value came out at 0 with PIK4CA, 2 with PIK4CB, 0 with PLK1 and 1 with PRKAA1.
